Assay results reported in patent US20250129067A1 (Progentos Therapeutics, Inc., priority 2021, published 2025).

By UniProt entry, the sequences of proteins in these tests, tags left out. Residues count along the entry.
UniProt P16234, 24-1089 limits assumed: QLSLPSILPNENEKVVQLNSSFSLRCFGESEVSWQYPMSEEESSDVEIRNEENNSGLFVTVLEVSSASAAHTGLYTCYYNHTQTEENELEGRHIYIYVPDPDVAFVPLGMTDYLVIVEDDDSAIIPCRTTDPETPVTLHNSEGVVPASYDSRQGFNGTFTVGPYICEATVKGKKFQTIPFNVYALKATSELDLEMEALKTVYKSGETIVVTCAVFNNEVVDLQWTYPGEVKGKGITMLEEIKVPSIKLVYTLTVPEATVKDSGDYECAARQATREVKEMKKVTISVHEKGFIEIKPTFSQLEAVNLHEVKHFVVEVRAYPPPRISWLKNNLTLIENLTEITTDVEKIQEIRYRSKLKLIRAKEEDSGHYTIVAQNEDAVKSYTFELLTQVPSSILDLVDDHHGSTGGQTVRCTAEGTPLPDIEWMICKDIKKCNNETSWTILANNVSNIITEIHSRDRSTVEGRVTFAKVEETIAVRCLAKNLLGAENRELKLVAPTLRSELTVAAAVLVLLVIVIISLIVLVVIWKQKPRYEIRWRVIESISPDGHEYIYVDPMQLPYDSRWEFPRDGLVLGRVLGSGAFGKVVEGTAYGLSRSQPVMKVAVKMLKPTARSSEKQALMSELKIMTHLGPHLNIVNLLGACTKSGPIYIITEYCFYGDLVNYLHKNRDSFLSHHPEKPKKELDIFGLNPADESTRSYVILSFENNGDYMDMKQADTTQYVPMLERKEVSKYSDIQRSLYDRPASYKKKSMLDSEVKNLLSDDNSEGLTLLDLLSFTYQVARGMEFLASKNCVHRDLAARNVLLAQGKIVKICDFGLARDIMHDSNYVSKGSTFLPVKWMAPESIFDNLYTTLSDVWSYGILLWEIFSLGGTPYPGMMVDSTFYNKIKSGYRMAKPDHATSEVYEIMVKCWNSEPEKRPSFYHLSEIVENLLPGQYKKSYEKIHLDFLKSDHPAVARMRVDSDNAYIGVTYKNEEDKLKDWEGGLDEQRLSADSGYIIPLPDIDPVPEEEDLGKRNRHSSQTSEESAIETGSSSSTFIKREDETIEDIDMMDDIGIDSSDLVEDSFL

Columns and labels:
[1] = target: PDGFRα (Homo sapiens (Human), UniProt P16234); test: PDGFRα kinase enzyme assay (Promega PDGFRα Kinase Enzyme System, ADP-Glo); type: biochemical; conditions: read-out: IC50 Values on PDGFRα Kinase Inhibition, IC50; 11-point dose response, 10,000 nM to 0.169 nM; 150 uM ATP; BLQ = below limit of quantitation
[2] = system: Oligodendrocyte progenitor cells (OPCs); test: In vitro OPC differentiation assay, GPR17 expression (immunocytochemistry); type: cell-based, rat

GPR17 Fold Induction (Over Vehicle; 3 μM) ([2]; 3 μM (10× concentration, final 0.3 μM), 72 hours, fold change over vehicle) | Structure (SMILES) | pIC50 [1] | fold induction [2]
0.88 | Cc1cn(-c2cc3ncc(N4CCCN(C(=O)OC(C)(C)C)CC4)n3cn2)cn1 | < 5.00 | –
– | Cc1cn(-c2cc3ncc(N4CCN(C(=O)OC(C)(C)C)CC4)n3cn2)cn1 | < 5.00 | 0.69

pIC50: −log10 of the molar value. Structures were worked out from names or drawings and are uncertain.
